Assay results: PubChem BioAssay AID1671190 (National Center for Advancing Translational Sciences (NCATS), 2021)
Screen size: about 580,000 compounds; about 6,100 (1.1%) were called active. The shares of active, inactive and inconclusive entries below differ from those in the screen. The call rests on the fitted dose curve; in most records, active means well fitted inhibition curve with a large enough effect; inconclusive means small, poorly fitted or top-dose-only effect, or another doubt; inactive means no such curve, though single readings can be large or run the other way. Potencies beside an inconclusive call are fits to weak or partial responses and may not hold up.

Amino acid sequences for entries named in this document (tags omitted). A change or cut given only in a name is not applied to a line headed by its entry.
UniProt P18054: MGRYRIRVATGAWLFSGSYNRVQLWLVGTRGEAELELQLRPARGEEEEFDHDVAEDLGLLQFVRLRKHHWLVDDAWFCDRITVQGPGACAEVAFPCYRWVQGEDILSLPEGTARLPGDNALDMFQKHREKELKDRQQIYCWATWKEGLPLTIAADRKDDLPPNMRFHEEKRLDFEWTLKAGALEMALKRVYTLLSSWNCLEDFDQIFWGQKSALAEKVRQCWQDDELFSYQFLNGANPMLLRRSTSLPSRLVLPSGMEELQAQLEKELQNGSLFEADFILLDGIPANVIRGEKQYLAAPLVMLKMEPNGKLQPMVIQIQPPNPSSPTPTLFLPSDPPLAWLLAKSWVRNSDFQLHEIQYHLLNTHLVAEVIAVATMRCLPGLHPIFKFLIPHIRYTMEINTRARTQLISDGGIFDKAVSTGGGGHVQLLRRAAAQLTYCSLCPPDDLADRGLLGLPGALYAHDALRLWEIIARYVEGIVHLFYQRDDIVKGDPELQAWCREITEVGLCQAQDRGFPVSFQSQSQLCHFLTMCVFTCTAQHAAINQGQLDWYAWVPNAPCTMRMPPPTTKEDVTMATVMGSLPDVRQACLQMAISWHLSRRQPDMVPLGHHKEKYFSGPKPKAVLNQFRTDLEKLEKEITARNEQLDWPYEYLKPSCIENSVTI

Target: Polyunsaturated fatty acid lipoxygenase ALOX12 (Homo sapiens) (UniProt P18054)
Experiment: Primary qHTS assay for inhibitors of human arachidonate 12S-lipoxygenase (ALOX12): Round 2
Conditions: purified 12hLO, xylenol orange hydroperoxide absorbance; series mostly up to 108 µM
Outline: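 Purified human 12hLO (150 nM final) in 25 mM Hepes, 0.01% Triton X-100, pH 7.0 was preincubated 15 min at room temperature with compound. Then 40 uM arachidonic acid was added, 30 min. Hydroperoxide was read by Fe-XO absorbance ratio 573/405 nm.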
Potency means the concentration at half of the fitted maximal effect.

Structure (SMILES) | Potency
CC(Sc1nncn1-c1cccc(Cl)c1)c1nc2ccccc2c(=O)[nH]1 (centres undefined) | inactive
Cc1ccc(NS(=O)(=O)c2ccc3[nH]c(=O)sc3c2)cc1 | inconclusive: 44.7 µM [inhibitor, partial curve, poor fit]
CCSc1cnn(-c2ccccc2)c(=O)c1Cl | inconclusive: 112 µM [inhibitor, partial curve, poor fit]
CN(C)CCN(C(=O)CCS(=O)(=O)c1ccccc1)c1nc2c(F)cccc2s1 | inconclusive: 50.1 µM [inhibitor, partial curve, poor fit]
COc1cc(=O)n2c(c1C(=O)N(C)Cc1ccsc1)CCN(Cc1c(C)nc3sccn13)CC2 | inconclusive: 112 µM [inhibitor, single point]
CCCCCCCc1ccc(C(=O)CCC(=O)O)cc1 | inactive
Oc1ccc(-c2nc3ccccn3c2NCc2ccc3c(c2)OCO3)cc1 | inactive
COc1ccc(NC(C)=O)cc1NC(C)c1nc2sc(C)c(C)c2c(=O)[nH]1 (centres undefined) | inactive
COCC(=O)N(C)C[C@H]1Oc2cc(C#Cc3cccnc3)ccc2S(=O)(=O)N([C@H](C)CO)C[C@H]1C | inconclusive: 35.5 µM [inhibitor, partial curve, poor fit]
CCCOc1ccc(N/C=C/C(=O)c2ccc(OC)c(OC)c2)cc1 | inactive
N#Cc1cccc(-c2ccc3ncnc(NCc4cccs4)c3c2)c1 | active: 50.1 µM
COCCN=c1scc(-c2ccco2)n1/N=C/c1ccc(O)c(O)c1O | inconclusive: 31.6 µM [inhibitor, partial curve]
COc1cccc(C2c3cc4c(cc3OC(C)(N3CCCC3)C2C)OCO4)c1O (centres undefined) | inconclusive: 44.7 µM [inhibitor, partial curve, poor fit]
O=C(OCc1cc(=O)oc2cc(O)ccc12)c1cc(S(=O)(=O)N2CCOCC2)ccc1F | inconclusive: 126 µM [inhibitor, single point]
CNS(=O)(=O)c1ccc(NC(=O)c2csc(C)c2)cc1 | inconclusive: 11.2 µM [inhibitor, partial curve, poor fit]
S=C(NC1CC2CCC1C2)N1CCN(c2cccc(Cl)c2)CC1 (centres undefined) | inconclusive: 44.7 µM [inhibitor, partial curve, poor fit]
COc1cc(NC(=S)NCCc2ccccc2)c(OC)cc1NC(=O)C(C)C | inconclusive: 50.1 µM [inhibitor, partial curve, poor fit]
COc1ccc(N2CCN(C(=O)CSc3n[nH]c(-c4ccccc4)n3)CC2)cc1 | inactive
COc1ccc(C2CC2C(=O)c2ccccn2)cc1 (centres undefined) | inactive
CCOC(=O)/C(C#N)=C/c1cc(Br)ccc1OCc1ccccc1Cl | inactive
COc1cccc(/C=N/NC(=O)C(=O)N2CCCC2)c1O | inactive
C/C(CC(=O)N1CCCC1)=N\NC(=O)c1cc2ccccc2cc1O | inactive

An excerpt of these results, as tab-separated lines.
Structure (SMILES)	Potency
S=C(NC1CC2CCC1C2)N1CCN(c2cccc(Cl)c2)CC1 (centres undefined)	inconclusive: 44.7 µM [inhibitor, partial curve, poor fit]
COc1cc(NC(=S)NCCc2ccccc2)c(OC)cc1NC(=O)C(C)C	inconclusive: 50.1 µM [inhibitor, partial curve, poor fit]
COc1ccc(N2CCN(C(=O)CSc3n[nH]c(-c4ccccc4)n3)CC2)cc1	inactive

Next part:

Structure (SMILES) | Potency
C/C(=N\Nc1ccc(Br)cc1)c1ccc([N+](=O)[O-])cc1 | inconclusive: 2.82 µM [inhibitor, full curve, poor fit]
CN(C)C(=O)c1ccc(NC(=O)Cn2nnnc2-c2ccccc2F)cc1 | inconclusive: 70.8 µM [inhibitor, partial curve, poor fit]
O=C(N[C@H](Cc1cc(=O)[nH]c2ccccc12)C(=O)O)c1ccc(Cl)cc1 | inconclusive: 35.5 µM [inhibitor, single point]
O=C(C1=C(O)C(=O)N(Cc2ccco2)C1c1cccnc1)c1cc2ccccc2o1 (centres undefined) | inconclusive: 35.5 µM [inhibitor, single point]
Fc1cccc(Cl)c1/C=C/c1cnc2ccccc2n1 | inconclusive: 31.6 µM [inhibitor, single point]
Cc1cc(C)c(C(=O)CC(=O)c2cccnc2)c(C)c1 | inconclusive: 28.2 µM [inhibitor, partial curve]
NC(=O)c1ccc(-c2nnn(CC(=O)Nc3cccc(S(=O)(=O)N4CCCC4)c3)n2)cc1 | inconclusive: 112 µM [inhibitor, single point]
COc1ccc(C(=O)NC2CCN(c3cn[nH]c(=O)c3)CC2)c(OC)n1 | inconclusive: 10 µM [inhibitor, partial curve, poor fit]
O=C(NCC(O)c1ccc(F)cc1)Nc1ccc(F)cc1 (centres undefined) | inactive
COc1cc(C(=O)Nc2ccccn2)cc(OC)c1OC | inactive
NC(=O)c1nc(Nc2ccccc2)sc1NC(=O)C12CC3CC(CC(C3)C1)C2 | inconclusive: 112 µM [inhibitor, partial curve, poor fit]
Cn1c(=O)n(C/C=C/c2ccccc2)c(=O)c2c1nc1n2CCN1c1ccc(F)cc1 | inactive
C[C@]1(CC/C(=C/CO)CO)[C@H](CO)CC[C@@]23COC(=O)C2=CCC[C@@H]31 | inactive
Cc1nc(C)c(CC(=O)N2CCOc3ccc(CN4CCN(c5ccccn5)CC4)cc3C2)s1 | inactive
Cc1nc(N=Nc2cc([N+](=O)[O-])ccc2Cl)c(COP(=O)(O)O)c(C=O)c1O | active: 11.2 µM
CNC(=O)[C@@H](c1ccccc1F)N1CCC[C@H]1C(=O)NCC(C)C | inconclusive: 56.2 µM [inhibitor, single point]
CC(=O)Nc1ccc(Oc2sc(C(=O)c3ccccc3)c(N)c2C#N)cc1 | inconclusive: 7.94 µM [inhibitor, partial curve, poor fit]
CCc1ocnc1C(=O)N1CCC2(CCC(=O)N(CCc3cnc[nH]3)C2)CC1 | inconclusive: 3.55 µM [inhibitor, full curve, poor fit]
O=C(CC1SC(=Nc2ccc(OC(F)F)cc2)N(CCN2CCOCC2)C1=O)Nc1ccccc1 (centres undefined) | inactive
COCCNc1nc2c(c(=O)n(Cc3ccc(OC)cc3)c(=O)n2C)n1C | inactive
CN(Cc1cccc(Cl)c1Cl)C(C(=O)NC1CC1)c1ccc(F)cc1 (centres undefined) | inconclusive: 14.1 µM [inhibitor, full curve, poor fit]
COCc1cc(C)nc2sc(C(=O)Nc3ccc(C(=O)OC)cc3)c(N)c12 | inconclusive: 44.7 µM [inhibitor, partial curve, poor fit]
